# According to PubChem BioAssay AID540275 (National Center for Advancing Translational Sciences (NCATS), 2011):
# Sequences of proteins named here, by UniProt entry; tags and fusion partners are left off.
# UniProt Q8NER1, whole entry, looked up: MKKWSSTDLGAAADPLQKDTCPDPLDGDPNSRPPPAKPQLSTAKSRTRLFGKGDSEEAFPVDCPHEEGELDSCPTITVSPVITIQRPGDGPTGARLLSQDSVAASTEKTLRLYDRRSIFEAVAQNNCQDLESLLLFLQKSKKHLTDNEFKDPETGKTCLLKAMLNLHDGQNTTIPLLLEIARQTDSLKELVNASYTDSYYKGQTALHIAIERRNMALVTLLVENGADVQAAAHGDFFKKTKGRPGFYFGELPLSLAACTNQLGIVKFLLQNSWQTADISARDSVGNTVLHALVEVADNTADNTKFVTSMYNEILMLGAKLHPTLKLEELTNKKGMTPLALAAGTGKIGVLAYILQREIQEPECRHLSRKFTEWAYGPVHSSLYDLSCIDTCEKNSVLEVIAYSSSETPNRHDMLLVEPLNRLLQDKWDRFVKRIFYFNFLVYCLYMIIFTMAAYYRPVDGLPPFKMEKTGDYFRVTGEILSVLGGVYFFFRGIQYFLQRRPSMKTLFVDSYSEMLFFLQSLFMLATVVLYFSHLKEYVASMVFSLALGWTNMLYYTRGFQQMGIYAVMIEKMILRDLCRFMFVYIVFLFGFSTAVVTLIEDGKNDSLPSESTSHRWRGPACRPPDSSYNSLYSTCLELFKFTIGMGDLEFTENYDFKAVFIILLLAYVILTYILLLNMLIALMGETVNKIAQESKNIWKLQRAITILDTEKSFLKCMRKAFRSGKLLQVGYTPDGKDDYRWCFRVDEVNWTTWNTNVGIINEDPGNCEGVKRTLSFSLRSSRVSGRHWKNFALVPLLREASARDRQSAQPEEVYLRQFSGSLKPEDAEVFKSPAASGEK
# The whole screen tested about 320,000 compounds, of which about 620 (0.19%) were called active. Inconclusive means that the source gave no clear call. Such entries were picked first, then a sample of the others. No stated cut-off is given here; in the data, active means activation above about 80%; inconclusive means between about 30% and that limit; inactive means weaker than that.
# Target: Transient receptor potential cation channel subfamily V member 1 (Homo sapiens) (UniProt Q8NER1)
# Assay: HTS Assay for Compounds that Act as Agonists of the Vanilloid Receptor 1; further: 0% is about no effect
# Settings: TRPV1-expressing cells, Fluo-8 calcium influx, agonist mode; at 8.33 µM, active compounds read high
# In short: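 Cells expressing TRPV1 were dye-loaded with Fluo-8 and read kinetically: 10 s baseline, 3 min after compound (agonist portion), then 2 min after EC20 capsaicin (allosteric enhancer portion). Calcium-bound dye fluorescence at 480/520 nm.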
row,Compound,activation
1,O=C(CSc1nc(-c2cccs2)cc(C(F)(F)F)n1)NCc1ccccc1,inconclusive: 42.3%
2,COCCn1c(-c2ccc(Cl)cc2Cl)nc2c(c(=O)c3ccccc3n2C)c1=O,inactive: -2.5%
3,CCNC(=S)Nc1ccc(NC(=O)c2ccccc2O)cc1,inactive: -3.15%
4,CC1=NCCN1CCNC(=O)Nc1ccc(C(C)(C)C)cc1,inconclusive: 51.7%
5,Oc1oc(-c2ccco2)nc1C=Nc1cccc(Cl)c1,inconclusive: 44.7%
6,COc1ccc(O)c(/C=N/NC(=O)CCC(=O)Nc2ccc(F)cc2)c1,inconclusive: 54.6%
7,O=C(Nc1ccc(Cl)cc1)c1csc(-c2ccncc2)n1,inactive: 26.2%
8,CCOC(=O)Cc1csc(NC(=O)c2ccc(Br)cc2)n1,inconclusive: 41%
9,O=C(N/N=C/c1ccc(O)c(O)c1)c1ccc(CSc2cccc3cccnc23)cc1,inconclusive: 60.5%
10,N#CNC(=Nc1cccc(F)c1)SCc1ccccc1,inconclusive: 32.4%
11,C/C(=N\Nc1ncnc2sc(C)c(C)c12)c1ccccn1,active: 87.5%
12,C[C@H](NC(=O)c1nc[nH]c1C(=O)NC(c1ccccc1)c1ccccc1)C(=O)OC(C)(C)C,inconclusive: 63.6%
13,Cc1c(Cl)cccc1NC(=S)NC1CCN(C(C)C)CC1,inactive: 3.2%
14,CCOc1ccc(C(=O)Nc2ccc(N3CCN(C)CC3)cc2)cc1Br,inactive: 5.96%
15,O=C(Nc1ccc(F)cc1)N1CCN(c2ccc3nnc(-c4ccc(F)cc4)n3n2)CC1,inactive: 3.91%
16,CC(C)C(=O)NNC(=O)c1csc(-c2cccs2)n1,inactive: -6.09%
17,O=C(Nc1cccc(O)c1)c1cc(-c2ccc3c(c2)OCO3)on1,inconclusive: 47.9%
18,CCc1ccc2c(c1)C(c1ccncc1)=NNC(c1ccccc1)=N2,inconclusive: 31.2%
19,COc1ccc(CC(=O)NCc2ccc3c(c2)cc(C)n3C)cc1OC,inconclusive: 67.3%
20,CC1(C)NC(=O)N(CCOc2ccc3c(c2)CCC3)C1=O,inconclusive: 53.6%

# Structural class: the entries above containing an aryl methoxy group
row,Compound,activation
6,COc1ccc(O)c(/C=N/NC(=O)CCC(=O)Nc2ccc(F)cc2)c1,inconclusive: 54.6%
19,COc1ccc(CC(=O)NCc2ccc3c(c2)cc(C)n3C)cc1OC,inconclusive: 67.3%

# Single entries from the list:
# Entry for Oc1oc(-c2ccco2)nc1C=Nc1cccc(Cl)c1 under activation: inconclusive: 44.7%
# Entry for CCOc1ccc(C(=O)Nc2ccc(N3CCN(C)CC3)cc2)cc1Br under activation: inactive: 5.96%

# Further records follow:

row,Compound,activation
1,CCOC(=O)C1=C(C)OC(N)=C(C#N)C1c1cc2cc(C)ccc2nc1N1CCCCC1 (stereo not drawn),inconclusive: 43.7%
2,Cc1ccc(CC2CC(=O)N(CCc3ccc4c(c3)OCO4)C2=O)cc1 (stereo not drawn),inactive: 27.8%
3,CCN(CC(=O)NC(C)C)Cc1nc2sc3c(c2c(=O)[nH]1)CCC3,inactive: 1.2%
4,COc1ccc(Br)cc1CN(C)CC(=O)NCCc1ccccc1,inconclusive: 34.4%
5,CN(C)c1ccc(-c2nnc(-c3ccccc3F)o2)cc1,inconclusive: 50.1%
6,COc1cc(/C=C/C(=O)OCC(=O)Nc2ccc(Cl)cn2)ccc1O,inconclusive: 55.2%
7,COc1ccc(NC(C)=O)cc1S(=O)(=O)N1CCN(C/C=C/c2ccccc2)CC1,inactive: -1.95%
8,O=C(NCCc1csc(-c2ccc(Cl)cc2)n1)c1ccco1,inconclusive: 35.5%
9,CCc1ccccc1N1CCN(S(=O)(=O)c2ccc(F)c(C)c2)CC1,inactive: 0.0826%
10,O=C(c1ccccc1)C1CN(Cc2ccccc2)CCC1(O)c1ccccc1 (stereo not drawn),inconclusive: 37.8%
11,Cc1ccc(/C=N/NC(=O)c2n[nH]c3c2CCCC3)cc1,inconclusive: 49.5%
12,CC(C)(C)c1cc(CCC(=O)NNC(=O)c2ccncc2)cc(C(C)(C)C)c1O,inconclusive: 37.6%
13,CCOc1ccc(N2C(=O)C3C(c4ccccc4)=NN(c4ccccc4)C3C2=O)cc1 (stereo not drawn),inactive: 0.969%
14,CCCCC(CC)C(=O)Nc1cccc(SC)c1 (stereo not drawn),inconclusive: 30.8%
15,Cc1ccc(CNn2cnnc2SCc2ccc(F)cc2)cc1,inconclusive: 73%
16,Cc1ccc(N2CC(C(=O)NCCS(=O)(=O)N3CCN(c4ccccc4)CC3)CC2=O)cc1C (stereo not drawn),inactive: -1.22%
17,COc1ccc(NC(=O)CN(C)S(=O)(=O)c2ccc(C)cc2)c([N+](=O)[O-])c1,inactive: 8.2%
18,CC(=O)Nc1ccc(S[C@@H](CCN2CC[C@H](C(C)(C)C)CCC2=O)c2ccccc2)cc1,inconclusive: 33.4%
19,O=C(Nc1ccc(OC(F)(F)C(F)F)c(NC(=O)c2cccc(F)c2)c1)c1cccc(F)c1,inconclusive: 33.9%
20,Cc1ccc(CN(Cc2ccccn2)C(=O)Nc2ccc(C)c(C)c2)cc1,inconclusive: 53.3%

row,Compound,activation
1,CCOC(=O)/C(=N\Nc1ncnc2ccccc12)c1ccc(C)cc1,inconclusive: 73.1%
2,COc1ccc(Br)cc1-c1nc(CCl)cs1,inactive: 0.0766%
3,O=C(NC1CCCCCC1)c1cc(S(=O)(=O)N2CCOCC2)ccc1N1CCCCC1,inconclusive: 63.6%
4,N#C/C(=C\Nc1ccc2c(c1)OCCO2)c1nc2ccccc2[nH]1,inconclusive: 43%
5,O=C(CCCc1nc(-c2ccc(Cl)cc2)no1)Nc1cccnc1,inconclusive: 57.9%
6,O=C(Nc1ccc(Br)cn1)c1ccc([N+](=O)[O-])cc1Cl,inconclusive: 58.4%
7,CCn1nc(NC(=O)C(C)(C)C)c2cc3cccc(C)c3nc21,inconclusive: 45.1%
8,O=C(COc1ccccc1)OCc1cc(-c2ccco2)on1,inconclusive: 34.1%
9,O=C(Nc1ncc2c(n1)-c1ccccc1CC2)c1cccs1,inconclusive: 41.9%
10,COc1ccc(-c2nc(C#N)c(N3CCCCCC3)o2)cc1OC,inactive: 16.2%
11,Cc1cc(C)c(CN2CCC(CO)(CCOc3ccccc3)CC2)cc1C,inactive: 3.38%
12,C=C(C)COc1ccc2c(CC)cc(=O)oc2c1C,inconclusive: 33.5%
13,COc1ccccc1Cn1c(=S)[nH]c2ccccc2c1=O,inconclusive: 40.8%
14,O=C(Nc1ccc([N+](=O)[O-])cc1)c1cncc(Br)c1,inconclusive: 41%
15,Cc1ccc(C(=O)C2CCN(C(=O)c3ccc(C)cc3)CC2)cc1,inconclusive: 35.2%
16,Cc1cccc(NC(=O)Cc2ccc(F)cc2)c1,inconclusive: 47.2%
17,COCCNC(=O)/C(C#N)=C/C=C/c1ccccc1[N+](=O)[O-],inactive: 0.0546%
18,COc1ccc(NC(=O)CN(C)C(=O)COc2ccccc2Cc2ccccc2)cc1,inconclusive: 33.3%
